Data as given in patent US6489118B2, “Allergenic proteins and peptides from dog dander and uses therefor” (ImmuLogic Pharmaceutical Corporation, priority 1992, dated 2002).
Some results were stated once for a whole list of compounds, not compound by compound.

Test system: human T cell lines primed with recombinant Can f I
Test: Secondary human T cell proliferation assay (3H thymidine incorporation)
Assay type: cell-based
Details: mean of positive responses (S.I. >= 2); T cell lines from dog allergic patients primed with rCan f I; FIG. 25
From the text: In one embodiment, peptides which have Can f I or Can f II T cell stimulating activity (i.e., the peptide comprises at least one T cell epitope) can be identified using an algorithm which predicts the presence of T cell epitopes in a protein sequence, such as the algorithm described by Hill et al., Journal of Immunology, 147:189-197 (1991). The algorithm of Hill et al. predicts the location of T cell epitopes in a protein by the presence of certain patterns within the sequence which are likely to bind MHC and therefore may contain T cell epitopes. Based on the Hill et al. algorithm, two 13 amino acid peptides (discussed in Example 10) have been identified and produced synthetically. Such peptides were tested for T cell activity as described above (e.g., by measuring cellular uptake of tritiated thymidine). Specifically, in Example 10, human T cell stimulating activity was tested by culturing T cells obtained from an individual sensitive to Can f I (i.e., an individual who has an IgE mediated immune response to Can f I) with a peptide derived from Can f I and proliferation of T cells in response to the peptide was determined, e.g., by measuring cellular uptake of tritiated thymidine. Stimulation indices for responses by T cells to peptides were calculated as the maximum CPM in response to a peptide divided by the control CPM. […] T cell epitopes can also be predicted and determined as described above for peptides derived from Can f II.
In addition, preferred peptides have a positivity index (P.I.) of at least about 60, more preferably about 100, more preferably at least about 200 and most preferably at least about 300. The positivity index for a peptide is determined by multiplying the mean T cell stimulation index by the percent of individuals, in a population of individuals sensitive to dog dander allergens (e.g., preferably a population of at least 12 individuals, more preferably a population of at least 30 individuals or more), who have a T cell stimulation index to such peptide of at least 2.0. […]

Substance	mean T cell stimulation index (S.I.)
Construct 1: recombinant fragment of Can f I, amino acids 1 through 65 (SEQ ID NO: 105), expressed in E. coli with His6	at least 5
Construct 2: recombinant fragment of Can f I, amino acids 56 through 108 (SEQ ID NO: 106), expressed in E. coli (TVVLHKTSEPGKYTAYEGQRVVFIQPSPVRDHYILYCEGELHGRQIRMAKLLG)	at least 5
Construct 3: recombinant fragment of Can f I, amino acids 90 through 148 (SEQ ID NO: 107), expressed in E. coli	at least 5
